PMC10027040
No constants are given. Whether binding was seen depends on the method and setting. In cells and extracts the contact can be indirect. Some entries that bind do so weakly or less than the wild type. Tags and fused reporters may be left off the sequences shown. One block for each molecule: values may come before it.

By UniProt entry, the sequences of proteins in these tests, tags left out.
UniProt O00506: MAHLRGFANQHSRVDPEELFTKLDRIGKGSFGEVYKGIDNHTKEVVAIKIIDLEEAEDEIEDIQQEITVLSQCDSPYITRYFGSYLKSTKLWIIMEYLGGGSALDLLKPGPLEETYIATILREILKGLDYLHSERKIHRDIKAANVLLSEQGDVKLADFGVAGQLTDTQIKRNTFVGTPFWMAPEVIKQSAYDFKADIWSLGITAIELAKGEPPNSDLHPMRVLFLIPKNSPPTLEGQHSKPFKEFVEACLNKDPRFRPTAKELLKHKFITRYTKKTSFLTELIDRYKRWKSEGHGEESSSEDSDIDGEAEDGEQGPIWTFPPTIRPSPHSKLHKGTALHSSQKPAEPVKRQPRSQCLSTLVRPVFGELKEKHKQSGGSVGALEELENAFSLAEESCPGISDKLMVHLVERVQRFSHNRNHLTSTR

How the values were obtained:
[1] = biological target: T1, MYC-tagged thousand and one kinase 1 (TAOK1) (human) (UniProt Q7L7X3); assay: co-IP; protein extracts of IHHs transfected with MYC-TAOK1 and FLAG-STK25 (or FLAG-Control plasmid); immunoprecipitated with anti-MYC magnetic beads; western blot for TAOK1 and STK25
T1 sequence: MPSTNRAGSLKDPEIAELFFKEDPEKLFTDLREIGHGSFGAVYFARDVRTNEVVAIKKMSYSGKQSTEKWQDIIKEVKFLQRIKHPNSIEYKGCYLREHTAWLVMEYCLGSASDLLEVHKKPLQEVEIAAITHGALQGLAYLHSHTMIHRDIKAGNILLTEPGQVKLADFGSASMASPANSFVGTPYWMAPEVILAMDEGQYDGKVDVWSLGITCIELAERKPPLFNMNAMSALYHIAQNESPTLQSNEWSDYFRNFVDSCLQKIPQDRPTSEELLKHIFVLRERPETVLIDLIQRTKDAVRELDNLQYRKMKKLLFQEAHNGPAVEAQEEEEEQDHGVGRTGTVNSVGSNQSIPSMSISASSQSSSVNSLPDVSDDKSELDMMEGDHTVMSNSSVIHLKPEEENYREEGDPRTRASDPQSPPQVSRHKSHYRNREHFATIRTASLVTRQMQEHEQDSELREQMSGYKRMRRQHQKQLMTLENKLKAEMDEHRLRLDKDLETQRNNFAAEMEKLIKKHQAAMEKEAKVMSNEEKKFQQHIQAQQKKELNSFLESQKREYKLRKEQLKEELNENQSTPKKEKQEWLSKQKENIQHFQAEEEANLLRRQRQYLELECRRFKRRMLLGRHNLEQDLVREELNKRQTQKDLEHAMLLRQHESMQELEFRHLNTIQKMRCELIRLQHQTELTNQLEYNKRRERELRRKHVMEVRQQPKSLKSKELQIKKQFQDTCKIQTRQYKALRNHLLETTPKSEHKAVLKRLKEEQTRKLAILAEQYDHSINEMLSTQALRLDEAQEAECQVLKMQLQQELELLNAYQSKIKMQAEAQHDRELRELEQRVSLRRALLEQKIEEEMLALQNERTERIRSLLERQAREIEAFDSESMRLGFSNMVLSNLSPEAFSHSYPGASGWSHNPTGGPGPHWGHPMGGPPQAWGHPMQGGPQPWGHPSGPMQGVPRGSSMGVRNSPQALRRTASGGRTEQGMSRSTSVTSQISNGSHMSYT

FLAG-STK25 = FLAG-STK25 (UniProt O00506); assay: co-IP; protein extracts of IHHs transfected with MYC-TAOK1 (or MYC-Control plasmid) and FLAG-STK25; immunoprecipitated with anti-FLAG M2 magnetic beads; western blot for TAOK1 and STK25

binding [1]: binds
Molecule: FLAG-STK25 (from UniProt O00506 1-426) (enzyme)

binding (FLAG-STK25): binds
B1: MYC-tagged thousand and one kinase 1 (TAOK1) (enzyme, UniProt Q7L7X3 1-1001)
chain: T1 sequence
